This is one part of the list.
B1: il10ra_site1_normal_mot_HHH_b2_07521_000000141_0001_20_37_H_._HHH_b1_04812_0001_0000100006_0000001_0 (protein)
chain: SSSSDDEEYIRLSSRFAEFLLKEGDPRAAKILLEVARRLAEEANDPELLRELEELLEEVNSSSSS
B2: il10ra_site1_normal_mot_HHH_b1_02397_af2_000000085_0001_39_57_H_._HHH_b2_00311_0001_0000100005_0000001_1 (protein)
chain: SSSSSSDLEELLEELEQLLEEGDHERFAEVALRILRHAFRNSDPEVLQAVWRLVRELASSSSSSS
B3: il10ra_site1_normal_mot_HHH_b2_07569_000000265_0001_38_56_H_._HHH_b2_07896_0001_0000100003_0000002_0 (protein)
chain: SSSSSDEEYQEEVEELLEEAKHIEDREKALEVLLEALQLALELGDPELVQLVWEVIKRLFSSSSS
B4: il10ra_site1_sap_22_mot_HHH_b2_02022_af2_000000170_0001_1_16_H_._HHH_b1_06437_0001_0000200006_0000001_0_0001_af2pred_0001 (protein)
chain: SSSSSDEEEEEVEELLEEARKIEDEEEVRKILARAHRIASELNNPELIQKVLQVFAELMGSSSSS
B5: il10ra_site1_normal_mot_HHH_b1_06994_000000193_0001_40_55_H_._HHH_b2_00652_0001_0000100005_0000001_0 (protein)
chain: SSSSDQREELAEALERLIEQALENGDERAARFLLYSLELLAEELNDPELRELVEELRERLDSSSS
B6: il10ra_site1_normal_mot_39ab2cb694c8b9c1dc7e65c0d672c93e_0001_000000036_0001_53_65_H_._HHH_b1_00346_0001_0000900028_0000003_0 (protein)
chain: SSSSDKEENEELLERLQELIEEGDREEALRLAQEALRILVRNSDPEALQELWELVKLIAEISSSS
B7: il10ra_site1_sap_20_mot_1e76edf2fd0b5081d1d1bafe495674d8_0001_000000060_0001_52_65_H_._ems_3hM_1509_0001_0000200009_0000001_0_0001_af2pred_0001 (protein)
chain: SSSSSSSDERSVKLILRAAKRIPDPEKAKLAVRVALLSAKEANNPELEREAEEILEELSSSSSSS
B8: il10ra_site1_normal_mot_HHH_b2_00273_000000062_0001_23_39_H_._HHH_b1_01151_0001_0000400028_0000001_0 (protein)
chain: SSSSSDRVEELLEEAEELAERGNPREALRVLQEAIRFAFRLNDQELLREIWEVARLVAELSSSSS
B9: il10ra_site1_normal_mot_HHH_b2_00475_000000107_0001_44_57_H_._ems_3hM_3122_0001_0000300009_0000001_0 (protein)
chain: SSSEEEVEEIVKEAEKLAKEKNDEELERYVEIARHFVEAALKLGDKELAERVARFLLESVEDASS
B10: il10ra_site1_sap_17_mot_HHH_b2_06600_af2_000000211_0001_1_16_H_._HHH_b2_07336_0001_0000100005_0000001_0_0001 (protein)
chain: SEEEEILERLAKGDPEAERLLRELIERLEEEGDEEAVLRLLFEAVRIVQQASNPEALQVVWELLP
B11: il10ra_site1_normal_mot_HHH_b1_00137_000000000_0001_1_19_H_._HHH_b2_06740_0001_0000700018_0000001_0_af2pred_0001 (protein)
chain: SSSDLQELQRFAAEVVVELVEELGLDREQLKILLELALRLVREGFSEEEIERILREVAEELSSSS
B12: il10ra_site1_normal_mot_HHH_b2_00033_000000036_0001_41_54_H_._HHH_b1_00748_0001_0000400025_0000001_0 (protein)
chain: SSSSDAAELAAAASRLAIRLNNPELFQRLWELAKRIAEEGDPELREELEEIVEELERLISSSSSS
B13: il10ra_site1_normal_mot_HHH_b1_04704_af2_000000076_0001_43_57_H_._HHH_b2_03013_0001_0000100007_0000001_0_af2pred_0001 (protein)
chain: SSSSSSKREVIEEAIKILRKARKVEDPEEVRELLEEAERLAEEANNILLKIQVEFAKRRLSSSSS
B14: il10ra_site1_normal_mot_HHH_b1_02062_000000185_0001_1_20_H_._HHH_b1_04705_0001_0000300019_0000002_0 (protein)
chain: SSSSDLLERVYELSREAAELHSDGNPEEAERVLEEARELAEELGNELLRVQLEFLERLLENSSSS
B15: il10ra_site1_sap_14_mot_HHH_b2_01732_000000184_0001_19_35_H_._0bd37feb6572f9efcaa6698804f79080_0001_af2_0001_0000100004_0000002_0_0001 (protein)
chain: SSSSSREEVWELIRKALEALANGDPERAEELLEEARQLAEELNSPLFRFAVEHLLRAVEESSSSS
B16: il10ra_site1_sap_22_mot_HHH_b1_02641_af2_000000230_0001_39_52_H_._HHH_b1_07066_0001_0000600036_0000002_0_0001 (protein)
chain: SSSSDVHEEVRRAIEEAIRLFREGNPEEAEKVLEEAAERLEERNNQLAVRSIRYLLEILKSSSSS
B17: il10ra_site1_normal_mot_HHH_b2_08265_af2_000000206_0001_22_38_H_._HHH_b2_01362_0001_0000200008_0000001_0_1_af2pred_dldesign_0_af2pred (protein)
chain: SSSSSPKQKEIERLKAELEALLKAKDYKKIVETLKRLVEVAAEEDDQEALQFAYEVNKKLSSSSS
B18: il10ra_site1_normal_mot_HHH_b1_02997_000000220_0001_39_52_H_._HHH_b2_07229_0001_0000100008_0000001_0_af2pred_0001 (protein)
chain: SSSSSEEAREAIELLREAVELLAEGNPEEARELVEEALELAREAGDPELEIIAEFLLRNLSSSSS

Target: il10ra, Q13651
Experiment: yeast display titration

Binder	apparent Kd
B1	inactive: > 1.58 µM
B2	inactive: no binding seen
B3	inactive: no binding seen
B4	inactive: no binding seen
B5	inactive: no binding seen
B6	inactive: no binding seen
B7	inactive: no binding seen
B8	inactive: no binding seen
B9	inactive: no binding seen
B10	inactive: no binding seen
B11	inactive: no binding seen
B12	inactive: no binding seen
B13	inactive: no binding seen
B14	inactive: no binding seen
B15	inactive: no binding seen
B16	inactive: no binding seen
B17	inactive: no binding seen
B18	inactive: no binding seen

Pulled one by one from above, two records:
Binder	apparent Kd
B18	inactive: no binding seen
B12	inactive: no binding seen
